The values below come from publication PMC8205225, “Structural Basis of Metallo-β-lactamase Inhibition by N-Sulfamoylpyrrole-2-carboxylates” (ACS Infectious Diseases, 2021).

One experiment concerns E. coli S117 blaNDM-1. Put plainly: antimicrobial susceptibility testing (MIC) with meropenem, CLSI, strain S117. Type of experiment: cell-based. Particulars: Escherichia coli, S117BLANDM1, read-out: MIC of meropenem (MEM) alone.
The test system of experiment [1] is K. pneumoniae IR43 blaNDM-1. The experiment is described as follows: antimicrobial susceptibility testing (MIC) with meropenem, CLSI, strain IR43. Particulars: Klebsiella pneumoniae, IR43BLANDM1, read-out: MIC of meropenem (MEM) alone.
The test system of the next experiment is E. coli IR57 blaNDM-1. The experiment is described as follows: antimicrobial susceptibility testing (MIC) with meropenem, CLSI, strain IR57. Particulars: Escherichia coli, IR57BLANDM1, read-out: MIC of meropenem (MEM) alone.
The test system of experiment [2] is K. pneumoniae B68-1 blaNDM-1. Put plainly: antimicrobial susceptibility testing (MIC) with meropenem, CLSI, strain B68-1. Particulars: Klebsiella pneumoniae, B681BLANDM1, read-out: MIC of meropenem (MEM) alone.

Turning to `C[C@@H](O)[C@H]1C(=O)N2C(C(=O)O)=C(S[C@@H]3CN[C@H](C(=O)N(C)C)C3)[C@H](C)[C@H]12` [MEM, meropenem], the minimum inhibitory concentration (MIC) (commonly the lowest concentration that inhibits growth of the organism) came to 256 µg/mL with E. coli S117 blaNDM-1, 128 µg/mL in experiment [1], 64 µg/mL in the experiment on E. coli IR57 blaNDM-1 and 64 µg/mL in experiment [2].
